In article PMC6553764 one finds binding data, which are given here for one substance.

Sequences of proteins named here, by UniProt entry; tags and fusion partners are left off.
UniProt Q06142: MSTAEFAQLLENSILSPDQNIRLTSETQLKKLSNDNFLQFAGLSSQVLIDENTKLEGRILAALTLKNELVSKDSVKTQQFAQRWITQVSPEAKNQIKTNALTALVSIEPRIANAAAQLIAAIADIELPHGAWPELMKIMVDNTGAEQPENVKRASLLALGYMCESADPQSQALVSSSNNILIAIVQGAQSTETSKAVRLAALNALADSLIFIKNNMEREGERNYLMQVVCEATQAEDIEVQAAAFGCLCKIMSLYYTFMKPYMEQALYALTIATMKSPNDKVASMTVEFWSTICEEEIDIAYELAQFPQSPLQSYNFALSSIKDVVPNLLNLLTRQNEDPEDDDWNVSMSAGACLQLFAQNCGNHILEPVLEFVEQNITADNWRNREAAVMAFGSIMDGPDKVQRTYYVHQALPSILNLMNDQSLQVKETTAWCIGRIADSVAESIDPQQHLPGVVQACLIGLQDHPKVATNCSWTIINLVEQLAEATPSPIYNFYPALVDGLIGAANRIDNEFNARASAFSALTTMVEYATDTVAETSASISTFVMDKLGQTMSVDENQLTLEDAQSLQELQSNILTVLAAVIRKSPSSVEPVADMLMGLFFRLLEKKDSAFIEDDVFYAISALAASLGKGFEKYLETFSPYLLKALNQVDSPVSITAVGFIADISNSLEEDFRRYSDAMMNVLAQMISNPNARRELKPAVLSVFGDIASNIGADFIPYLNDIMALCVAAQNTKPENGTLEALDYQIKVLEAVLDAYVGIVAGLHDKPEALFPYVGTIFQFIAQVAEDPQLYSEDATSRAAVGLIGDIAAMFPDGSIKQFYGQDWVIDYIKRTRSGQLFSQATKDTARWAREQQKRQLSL

No constants are given. Whether binding was seen depends on the method and setting. Some results given as binding are weak or reduced against the parent protein; the word gives no strength.

The target in this assay is Nsp1FG-Cys-His6 (S. cerevisiae). In words: QCM-D; Nsp1FG-modified sensor; 1 uM GST-Kap95 flowed for 10 s, 30 s, 1 min, 2 min or 60 min, followed by a dissociation phase; both purified.

GST-Kap95 (from UniProt Q06142 1-861): the binding entry is “binds”.
